The record followed here is paper PMC5393896.

Protein sequences, listed by entry. Tags and fused reporters are not part of them.
UniProt P05453: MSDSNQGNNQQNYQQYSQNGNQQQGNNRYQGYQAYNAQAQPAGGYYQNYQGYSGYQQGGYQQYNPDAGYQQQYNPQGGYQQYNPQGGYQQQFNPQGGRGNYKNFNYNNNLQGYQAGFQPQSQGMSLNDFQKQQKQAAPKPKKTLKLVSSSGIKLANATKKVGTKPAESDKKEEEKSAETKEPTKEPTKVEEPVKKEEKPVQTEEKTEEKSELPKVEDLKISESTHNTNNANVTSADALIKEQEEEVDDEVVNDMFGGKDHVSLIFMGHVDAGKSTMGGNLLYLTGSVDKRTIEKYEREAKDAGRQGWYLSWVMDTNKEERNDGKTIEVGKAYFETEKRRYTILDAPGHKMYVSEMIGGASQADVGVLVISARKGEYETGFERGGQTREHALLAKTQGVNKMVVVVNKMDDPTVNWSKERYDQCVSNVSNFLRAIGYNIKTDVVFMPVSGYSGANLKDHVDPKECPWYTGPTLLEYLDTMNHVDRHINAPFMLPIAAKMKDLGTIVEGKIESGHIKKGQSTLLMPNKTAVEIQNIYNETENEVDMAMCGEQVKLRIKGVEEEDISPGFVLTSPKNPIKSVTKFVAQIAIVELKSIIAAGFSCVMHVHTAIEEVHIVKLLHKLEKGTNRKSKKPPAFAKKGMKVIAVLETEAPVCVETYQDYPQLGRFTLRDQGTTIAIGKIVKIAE

These are yes or no findings as the source states them, for the method shown. In cells and extracts the contact can be indirect. These calls come from enrichment with a bait or labelling near it, and not all partners need be listed.

The labels stand for the following.
B1: Sti1 (protein, UniProt P15705 1-589)
chain: MSLTADEYKQQGNAAFTAKDYDKAIELFTKAIEVSETPNHVLYSNRSACYTSLKKFSDALNDANECVKINPSWSKGYNRLGAAHLGLGDLDEAESNYKKALELDASNKAAKEGLDQVHRTQQARQAQPDLGLTQLFADPNLIENLKKNPKTSEMMKDPQLVAKLIGYKQNPQAIGQDLFTDPRLMTIMATLMGVDLNMDDINQSNSMPKEPETSKSTEQKKDAEPQSDSTTSKENSSKAPQKEESKESEPMEVDEDDSKIEADKEKAEGNKFYKARQFDEAIEHYNKAWELHKDITYLNNRAAAEYEKGEYETAISTLNDAVEQGREMRADYKVISKSFARIGNAYHKLGDLKKTIEYYQKSLTEHRTADILTKLRNAEKELKKAEAEAYVNPEKAEEARLEGKEYFTKSDWPNAVKAYTEMIKRAPEDARGYSNRAAALAKLMSFPEAIADCNKAIEKDPNFVRAYIRKATAQIAVKEYASALETLDAARTKDAEVNNGSSAREIDQLYYKASQQRFQPGTSNETPEETYQRAMKDPEVAAIMQDPVMQSILQQAQQNPAALQEHMKNPEVFKKIQTLIAAGIIRTGR
B2: Abp1 actin nucleation promoting factor (protein, UniProt P15891 1-592)
chain: MALEPIDYTTHSREIDAEYLKIVRGSDPDTTWLIISPNAKKEYEPESTGSSFHDFLQLFDETKVQYGLARVSPPGSDVEKIIIIGWCPDSAPLKTRASFAANFAAVANNLFKGYHVQVTARDEDDLDENELLMKISNAAGARYSIQTSSKQQGKASTPPVKKSFTPSKSPAPVSKKEPVKTPSPAPAAKISSRVNDNNDDDDWNEPELKERDFDQAPLKPNQSSYKPIGKIDLQKVIAEEKAKEDPRLVQKPTAAGSKIDPSSDIANLKNESKLKRDSEFNSFLGTTKPPSMTESSLKNDDDKVIKGFRNEKSPAQLWAERKAKQNSGNAETKAEAPKPEVPEDEPEGEPDVKDLKSKFEGLAASEKEEEEMENKFAPPPKKSEPTIISPKPFSKPQEPVKAEEAEQPKTDYKKIGNPLPGMHIEADNEEEPEENDDDWDDDEDEAAQPPLPSRNVASGAPVQKEEPEQEEIAPSLPSRNSIPAPKQEEAPEQAPEEEIEEEAEEAAPQLPSRSSAAPPPPPRRATPEKKPKENPWATAEYDYDAAEDNELTFVENDKIINIEFVDDDWWLGELEKDGSKGLFPSNYVSLGN
B3: Crn1 (protein, UniProt Q06440 1-651)
chain: MSGKFVRASKYRHVFGQAAKKELQYEKLKVTNNAWDSNLLKTNGKFIAVNWNASGGGAFAVIPIEEVGKAPDQVPLFRGHTAQVLDTDFDPFNDHRIASGSDDSKIGIWDIPENYKFHDHVDEDGEPIDIKPVKFLTGHARKVGHVLYHPVAENVLASSSGDYTVKLWNVETGKDMITLKHPDMVTSMSFSYDGNYLATVARDKKLRVWNIREEKIVSEGPAHTGAKNQRVVWLGNSDRLATTGFSKLSDRQIGIWDAFNIEKGDLGGFYTVDQSSGILMPFYDEGNKILYLVGKGDGNIRYYEFQNDELFELSEFQSTEAQRGFAVAPKRMVNVKENEVLKGFKTVVDQRIEPVSFFVPRRSEEFQEDIYPDAPSNKPALTAEEWFSGKSVEGPILVSMRSIYDGSAPSFHEAKRPQQPTTQETALEEKKEQPKVEKPISESEKEVKQEAPKSPSPLKSASSSSTINHVLKEDNSINKLLKKSSDIDQVNNAEDPSRDTSGWEEADDEPAPIKIETPVTPTETKKDRTPKVEPSKELKPEPVSIATDRKQEQSLPQEEKSSEKTKSPEQEKSATPPSSITAAKTAITASSKEEPSAARTSPKSLGLKKSVEKLSTLVLQLEDVVDKLTKANLDKDERLLKLEQKIGELSK

This assay deals with Sup35 translation termination factor tagged at its C-terminus with a tandem affinity purification (TAP) tag (S. cerevisiae) (UniProt P05453). Kind of assay: affinity purification with mass spectrometry; Sup35-TAP affinity-purified by TAP chromatography from [PIN+][psi-] wild-type and tsa1 tsa2 mutant strains grown for 20 hours; co-purifying proteins identified by LC-MS in triplicate, kept if found in at least two of three replicates.
In the case of B1, the binding entry is recorded as “binds”.

As to B2, the binding result is listed as “binds”.

For the molecule B3, the binding result is listed as “binds”.
